Measured values taken from paper PMC9863049.
Results are given in words; binding and its absence hold for the method and conditions named. Binding seen in cells or lysates may run through a third protein. Binding calls can cover weak binding; strength is not graded here. Where a sequence is shown, tags or fusion partners need not be part of it.

Biological target: JUL1 fused to the N-terminal fragment of Venus (JUL1-nVenus) (Arabidopsis thaliana)
Assay: split reporter; BiFC with nVenus and cVenus fusions co-expressed in Nicotiana benthamiana leaf cells by Agrobacterium infiltration; 50 uM MG132 applied after 24 h, fluorescence observed after a further 24 h

binding: binds
B1: bZIP53 fused to the C-terminal fragment of Venus (bZIP53-cVenus) (protein, UniProt Q9LZP8 1-146)
chain: MGSLQMQTSPESDNDPRYATVTDERKRKRMISNRESARRSRMRKQKQLGDLINEVTLLKNDNAKITEQVDEASKKYIEMESKNNVLRAQASELTDRLRSLNSVLEMVEEISGQALDIPEIPESMQNPWQMPCPMQPIRASADMFDC
